Source: PMC4749218
No constants are given. Whether binding was seen depends on the method and setting. In cells and extracts the contact can be indirect. A result given as binding can be weak or reduced; the word gives no strength.

Molecular target: T1, E3 ubiquitin-protein ligase IE2 (Autographa californica nuclear polyhedrosis virus (AcMNPV)) (UniProt P24647)
T1 sequence: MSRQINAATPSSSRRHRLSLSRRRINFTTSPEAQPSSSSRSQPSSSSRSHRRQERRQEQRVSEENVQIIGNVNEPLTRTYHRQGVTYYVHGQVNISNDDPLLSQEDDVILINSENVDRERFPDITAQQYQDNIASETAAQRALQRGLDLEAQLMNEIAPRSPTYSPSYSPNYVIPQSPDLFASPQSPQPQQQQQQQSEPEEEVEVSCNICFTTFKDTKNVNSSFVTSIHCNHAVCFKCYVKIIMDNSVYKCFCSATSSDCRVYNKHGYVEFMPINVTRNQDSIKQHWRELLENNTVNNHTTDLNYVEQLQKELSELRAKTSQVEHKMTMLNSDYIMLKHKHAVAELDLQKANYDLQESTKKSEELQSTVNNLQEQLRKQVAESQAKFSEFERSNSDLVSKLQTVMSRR
Test: co-IP; nuclear extracts of vAcIE2-transduced Vero E6 cells incubated with anti-His antibody overnight at 4°C, protein G magnetic beads, washed in DPBS with 0.1% Tween 20, eluted with Laemmli buffer; Western blot; vAcE-transduced extract as control

HSP70
binding: binds

HSP90
binding: no binding
